These are yes or no findings as the source states them, for the method shown. Binding seen in cells or lysates may run through a third protein. Binding calls can cover weak binding; strength is not graded here.
Columns and labels:
[1] = target: GFP-PICALM NAAIRS mutant PTTAWN (aa 584–589 mutated to NAAIRS) (human) (UniProt Q13492); assay: co-IP; lysates of transfected HEK293T cells (HEK293 in the legends) 48 h after transfection; anti-GFP antibody overnight at 4°C, Protein-G-Sepharose 2 hr at 4°C, three washes with lysis buffer; immunoblot with anti-clathrin heavy chain antibody
[2] = target: GFP-PICALM:256–652 (amino-terminally truncated PICALM) (human) (UniProt Q13492); assay: as above

Protein sequences, listed by entry. Tags and fused reporters are not part of them. Lines headed by an entry give the natural chain unless they say otherwise; changes in a name come on top.
UniProt Q13492: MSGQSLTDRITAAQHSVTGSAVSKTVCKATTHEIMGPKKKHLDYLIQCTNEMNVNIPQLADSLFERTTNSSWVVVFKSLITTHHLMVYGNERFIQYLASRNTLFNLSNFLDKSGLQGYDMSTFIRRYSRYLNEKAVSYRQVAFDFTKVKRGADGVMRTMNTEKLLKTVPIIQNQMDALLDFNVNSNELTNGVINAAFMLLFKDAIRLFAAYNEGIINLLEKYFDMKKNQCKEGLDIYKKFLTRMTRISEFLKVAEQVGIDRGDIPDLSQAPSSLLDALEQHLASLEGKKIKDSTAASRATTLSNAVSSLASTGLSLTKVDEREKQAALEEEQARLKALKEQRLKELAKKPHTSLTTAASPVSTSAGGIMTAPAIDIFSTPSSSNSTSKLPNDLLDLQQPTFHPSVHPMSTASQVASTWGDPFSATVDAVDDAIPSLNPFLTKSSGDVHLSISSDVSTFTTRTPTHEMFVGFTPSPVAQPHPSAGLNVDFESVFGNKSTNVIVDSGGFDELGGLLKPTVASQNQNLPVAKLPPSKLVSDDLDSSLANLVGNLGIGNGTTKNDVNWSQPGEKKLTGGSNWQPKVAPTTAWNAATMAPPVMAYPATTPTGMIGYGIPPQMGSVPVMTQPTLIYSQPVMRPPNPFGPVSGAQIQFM
UniProt Q00610: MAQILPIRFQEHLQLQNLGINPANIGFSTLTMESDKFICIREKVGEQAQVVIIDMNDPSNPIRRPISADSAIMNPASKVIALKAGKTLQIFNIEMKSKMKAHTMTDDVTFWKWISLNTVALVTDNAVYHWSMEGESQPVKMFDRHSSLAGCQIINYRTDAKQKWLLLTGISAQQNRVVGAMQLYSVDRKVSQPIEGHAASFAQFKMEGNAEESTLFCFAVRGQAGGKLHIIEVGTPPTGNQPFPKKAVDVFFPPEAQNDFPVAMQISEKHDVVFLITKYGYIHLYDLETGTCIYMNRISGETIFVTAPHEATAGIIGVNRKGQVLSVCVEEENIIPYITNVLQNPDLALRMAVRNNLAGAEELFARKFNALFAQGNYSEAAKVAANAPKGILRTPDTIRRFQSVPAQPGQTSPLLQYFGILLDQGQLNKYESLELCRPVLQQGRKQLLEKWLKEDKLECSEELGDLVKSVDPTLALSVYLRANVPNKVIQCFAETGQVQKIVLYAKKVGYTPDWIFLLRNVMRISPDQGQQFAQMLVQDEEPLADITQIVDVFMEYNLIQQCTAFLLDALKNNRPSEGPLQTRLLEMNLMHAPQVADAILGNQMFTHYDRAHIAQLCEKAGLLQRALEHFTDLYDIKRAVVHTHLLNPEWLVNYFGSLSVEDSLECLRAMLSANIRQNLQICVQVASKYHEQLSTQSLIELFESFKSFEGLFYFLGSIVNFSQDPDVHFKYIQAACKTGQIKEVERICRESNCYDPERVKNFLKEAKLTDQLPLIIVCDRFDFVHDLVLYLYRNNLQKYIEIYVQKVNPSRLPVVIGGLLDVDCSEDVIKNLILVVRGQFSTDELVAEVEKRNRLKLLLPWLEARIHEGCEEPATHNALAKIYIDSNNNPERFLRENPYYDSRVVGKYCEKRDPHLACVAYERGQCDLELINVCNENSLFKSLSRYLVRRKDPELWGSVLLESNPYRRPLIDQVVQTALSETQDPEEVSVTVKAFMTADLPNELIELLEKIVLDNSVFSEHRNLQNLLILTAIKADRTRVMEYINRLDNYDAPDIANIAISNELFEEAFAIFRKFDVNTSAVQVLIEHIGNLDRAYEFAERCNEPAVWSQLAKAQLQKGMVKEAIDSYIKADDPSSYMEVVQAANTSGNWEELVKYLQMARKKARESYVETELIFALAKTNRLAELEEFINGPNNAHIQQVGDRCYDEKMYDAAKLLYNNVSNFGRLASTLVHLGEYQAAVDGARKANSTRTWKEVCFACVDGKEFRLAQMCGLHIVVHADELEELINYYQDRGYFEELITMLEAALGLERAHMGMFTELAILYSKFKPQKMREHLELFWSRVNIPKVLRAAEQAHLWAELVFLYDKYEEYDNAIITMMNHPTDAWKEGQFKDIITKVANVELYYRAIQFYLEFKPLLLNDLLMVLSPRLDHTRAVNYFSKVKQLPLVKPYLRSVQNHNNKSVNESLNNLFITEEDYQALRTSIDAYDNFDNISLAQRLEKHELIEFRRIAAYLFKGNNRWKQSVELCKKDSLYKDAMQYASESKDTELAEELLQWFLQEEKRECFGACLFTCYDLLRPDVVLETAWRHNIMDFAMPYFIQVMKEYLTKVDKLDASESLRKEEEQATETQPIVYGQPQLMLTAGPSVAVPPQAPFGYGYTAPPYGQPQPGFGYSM

clathrin heavy chain (from UniProt Q00610 1-1675)
binding [1]: binds
binding [2]: binds

— PMC3431333
